PubChem BioAssay AID743454, Peter MacCallum Cancer Centre – 2014
The deposit covers about 18,000 reagents; below is a random part of them. In the full data, 450 (2.5%) got an active call. 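Single biological run; no consistent viability z cut-off exists, so the class columns, not z-scores, define the calls.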

Aim: 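Knock-downs lowering viability or raising caspase 3/7 activity in vorinostat-treated resistant cells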 (primary screen)
Cell system: human HCT116-VR colon cancer cells, selected for vorinostat resistance
Reagent: siRNA pool against human genes, 40 nM siRNA pool
Duration: vorinostat for 24 h, read-out about 72 h after transfection
Challenge: vorinostat at 2.5 µM final
Detection: 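Cell viability by CellTiter-Fluor and caspase 3/7 activity by luminescence, each scaled to mock wells per plate, duplicates averaged, then robust z-scored over all plates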
Reading the numbers: viability robust z-score: higher = more viable cells than screen typical; caspase robust z-score: higher = more caspase 3/7 activity than screen typical
Call rule: 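Hits are knock-downs in viability class RV1/RV2 or caspase class CA1/CA2, excluding ones that killed cells in the no-drug cell-count arm; hits then retested with single siRNAs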

| gene knocked down | viability hit class | caspase hit class | viability robust z-score | caspase robust z-score | activity call |
| --- | --- | --- | --- | --- | --- |
| NXF5 (nuclear RNA export factor 5) | no change | no change | 0.22 | -0.53 | inactive |
| NUMA1 (nuclear mitotic apparatus protein 1) | no change | no change | -1.66 | -0.3 | inactive |
| SIAE (sialic acid acetylesterase) | no change | no change | 0.45 | 0.12 | inactive |
| UBXN1 (UBX domain protein 1) | no change | no change | 0.38 | 2.52 | inactive |
| VWA1 (von Willebrand factor A domain containing 1) | no change | no change | -1.82 | 4.07 | inactive |
| CD19 (CD19 molecule) | no change | no change | -2.21 | -1.05 | inactive |
| ZNF628 (zinc finger protein 628) | no change | no change | -0.76 | 1.81 | inactive |
| CHIT1 (chitinase 1) | no change | no change | 0.24 | 0.4 | inactive |
| CENPW (centromere protein W) | no change | no change | -0.59 | 0.88 | inactive |
| SPTBN5 (spectrin beta, non-erythrocytic 5) | no change | no change | -0.57 | -0.2 | inactive |
| MYLK3 (myosin light chain kinase 3) | no change | no change | 0.88 | -0.46 | inactive |
| EXOC4 (exocyst complex component 4) | no change | no change | 0.62 | 0.71 | inactive |
| CHTF8 (chromosome transmission fidelity factor 8) | no change | no change | 0.52 | -0.57 | inactive |
| DAZ3 (deleted in azoospermia 3) | no change | no change | -0.07 | -0.58 | inactive |
| ADGRB2 (adhesion G protein-coupled receptor B2) | no change | no change | -0.14 | -0.5 | inactive |
| HROB (homologous recombination factor with OB-fold) | no change | no change | 0.21 | -0.18 | inactive |
| TCEAL2 (transcription elongation factor A like 2) | no change | no change | 1.18 | -0.11 | inactive |
| INSYN2A (inhibitory synaptic factor 2A) | no change | no change | 0.57 | -0.7 | inactive |
| TMED9 (transmembrane p24 trafficking protein 9) | no change | no change | -1.23 | 1.18 | inactive |
| PMM1 (phosphomannomutase 1) | no change | no change | 0.42 | 3.28 | inactive |
| HLX (H2.0 like homeobox) | no change | no change | -1.1 | -0.3 | inactive |
| TCIM (transcriptional and immune response regulator) | no change | no change | 0.67 | -0.57 | inactive |
| WWP1 (WW domain containing E3 ubiquitin protein ligase 1) | no change | no change | -0.81 | -1 | inactive |
| ADSS1 (adenylosuccinate synthase 1) | no change | no change | 0.1 | -0.82 | inactive |
| ELF4 (E74 like ETS transcription factor 4) | no change | no change | -1.98 | 3.58 | inactive |
| DHX16 (DEAH-box helicase 16) | no change | no change | -0.25 | 0.91 | inactive |
| SKP2 (S-phase kinase associated protein 2) | no change | no change | 0.2 | -0.37 | inactive |
| CDK6 (cyclin dependent kinase 6) | no change | no change | -0.33 | -0.84 | inactive |
| MECP2 (methyl-CpG binding protein 2) | no change | no change | 0.04 | 0.21 | inactive |
| MRRF (mitochondrial ribosome recycling factor) | no change | no change | 0.58 | -0.9 | inactive |
| UNC5A (unc-5 netrin receptor A) | no change | no change | 0.06 | 0.52 | inactive |
| NHP2 (NHP2 ribonucleoprotein) | no change | no change | 1.12 | 0.64 | inactive |
| LOC400576 (retired record) | no change | no change | 0.77 | 1.17 | inactive |
| LAMA2 (laminin subunit alpha 2) | no change | no change | 1.1 | -1.01 | inactive |
| FOLR3 (folate receptor gamma) | no change | no change | -0.56 | 0.34 | inactive |
| MMAA (metabolism of cobalamin associated A) | no change | no change | -1.54 | -0.82 | inactive |
| MSH3 (mutS homolog 3) | no change | no change | -1.68 | 1.34 | inactive |
| RNF150 (ring finger protein 150) | no change | no change | -0.08 | -0.69 | inactive |
| RBM42 (RNA binding motif protein 42) | RV2 (reduced viability) | no change | -3.66 | -0.48 | active |
| ELMO2 (engulfment and cell motility 2) | no change | no change | -0.83 | -0.13 | inactive |
| MARK3 (microtubule affinity regulating kinase 3) | no change | CA2 (caspase activation) | -1.4 | 5.17 | active |
| HOATZ (HOATZ cilia and flagella associated protein) | no change | no change | 0.48 | -0.58 | inactive |
| TSHB (thyroid stimulating hormone subunit beta) | no change | no change | 0.98 | -0.98 | inactive |
| SDAD1 (SDA1 domain containing 1) | no change | no change | -1.83 | 0.38 | inactive |
| ALDH3B1 (aldehyde dehydrogenase 3 family member B1) | no change | no change | -0.61 | -0.34 | inactive |
| PSG9 (pregnancy specific beta-1-glycoprotein 9) | no change | no change | 0.26 | -0.28 | inactive |
| MIPEP (mitochondrial intermediate peptidase) | no change | no change | 0.04 | -0.37 | inactive |
| NIPA1 (NIPA magnesium transporter 1) | no change | no change | 0.1 | -0.12 | inactive |
| ZFAND2A (zinc finger AN1-type containing 2A) | no change | no change | -0.16 | -1 | inactive |
| PJVK (pejvakin) | no change | no change | 0.58 | -0.74 | inactive |
| UBN1 (ubinuclein 1) | no change | no change | 1.15 | 2.81 | inactive |
| OSBP2 (oxysterol binding protein 2) | no change | no change | -0.66 | 3.14 | inactive |
| NECAP2 (NECAP endocytosis associated 2) | no change | no change | 0.42 | -0.12 | inactive |
| OR9G9 (olfactory receptor family 9 subfamily G member 9) | no change | no change | 0.36 | -1.04 | inactive |
| HEPACAM2 (HEPACAM family member 2) | no change | no change | -0.7 | 1.04 | inactive |
| SLC2A6 | no change | no change | 0.96 | 4.12 | inactive |
| GNB1L (G protein subunit beta 1 like) | no change | no change | -0.38 | 0.37 | inactive |
| PTPN9 (protein tyrosine phosphatase non-receptor type 9) | no change | no change | 1.65 | 0.19 | inactive |
| MB (myoglobin) | no change | no change | -0.4 | -0.98 | inactive |
| ZNF507 (zinc finger protein 507) | no change | no change | 0.24 | -0.04 | inactive |
| KRT37 (keratin 37) | no change | no change | 0.32 | -0.45 | inactive |
| CCL3L1 (C-C motif chemokine ligand 3 like 1) | no change | no change | -0.04 | -0.45 | inactive |
| DNAJC12 (DnaJ heat shock protein family (Hsp40) member C12) | no change | no change | -0.32 | 3.78 | inactive |
| PRORP (protein only RNase P catalytic subunit) | no change | no change | 0.63 | -0.33 | inactive |
| ROR1 (ROR family WNT receptor 1) | no change | no change | -0.52 | 2.13 | inactive |
| C12orf76 (chromosome 12 open reading frame 76) | no change | no change | -0.96 | -1.12 | inactive |
| APIP (APAF1 interacting protein) | no change | no change | 0.86 | -0.86 | inactive |
| CEP57L1 (centrosomal protein 57 like 1) | no change | no change | 0.13 | -0.29 | inactive |
| MLKL (mixed lineage kinase domain like pseudokinase) | no change | no change | 0 | 1.21 | inactive |
| SOX7 (SRY-box transcription factor 7) | no change | no change | 0.04 | -0.36 | inactive |
| ITIH2 (inter-alpha-trypsin inhibitor heavy chain 2) | no change | no change | 0.16 | -1.14 | inactive |
| ANKAR (ankyrin and armadillo repeat containing) | no change | no change | 0.29 | 0.32 | inactive |
| FMN2 (formin 2) | no change | no change | 1.34 | 1.16 | inactive |

In a second layout: results already given
gene knocked down,viability hit class,caspase hit class,viability robust z-score,caspase robust z-score,activity call
MYLK3 (myosin light chain kinase 3),no change,no change,0.88,-0.46,inactive
EXOC4 (exocyst complex component 4),no change,no change,0.62,0.71,inactive
CHTF8 (chromosome transmission fidelity factor 8),no change,no change,0.52,-0.57,inactive
DAZ3 (deleted in azoospermia 3),no change,no change,-0.07,-0.58,inactive
